Results as given in PubChem BioAssay AID588590 (National Center for Advancing Translational Sciences (NCATS), 2011).
Hit rate of the full screen: of about 390,000 compounds, about 4,000 (1%) were called active. The shares of active, inactive and inconclusive entries below differ from those in the screen. Calls follow the shape of the dose curve; as a rule, active = well fitted inhibition curve with a large enough effect; inconclusive = small, poorly fitted or top-dose-only effect, or another doubt; inactive = no such curve, though single readings can be large or run the other way. Potencies beside an inconclusive call are fits to weak or partial responses and may not hold up.

The chains behind the UniProt entries cited, without tags or fusion partners. Where a name states a change or a piece, a line headed by the entry shows the natural chain unless it says otherwise.
UniProt Q9UNA4: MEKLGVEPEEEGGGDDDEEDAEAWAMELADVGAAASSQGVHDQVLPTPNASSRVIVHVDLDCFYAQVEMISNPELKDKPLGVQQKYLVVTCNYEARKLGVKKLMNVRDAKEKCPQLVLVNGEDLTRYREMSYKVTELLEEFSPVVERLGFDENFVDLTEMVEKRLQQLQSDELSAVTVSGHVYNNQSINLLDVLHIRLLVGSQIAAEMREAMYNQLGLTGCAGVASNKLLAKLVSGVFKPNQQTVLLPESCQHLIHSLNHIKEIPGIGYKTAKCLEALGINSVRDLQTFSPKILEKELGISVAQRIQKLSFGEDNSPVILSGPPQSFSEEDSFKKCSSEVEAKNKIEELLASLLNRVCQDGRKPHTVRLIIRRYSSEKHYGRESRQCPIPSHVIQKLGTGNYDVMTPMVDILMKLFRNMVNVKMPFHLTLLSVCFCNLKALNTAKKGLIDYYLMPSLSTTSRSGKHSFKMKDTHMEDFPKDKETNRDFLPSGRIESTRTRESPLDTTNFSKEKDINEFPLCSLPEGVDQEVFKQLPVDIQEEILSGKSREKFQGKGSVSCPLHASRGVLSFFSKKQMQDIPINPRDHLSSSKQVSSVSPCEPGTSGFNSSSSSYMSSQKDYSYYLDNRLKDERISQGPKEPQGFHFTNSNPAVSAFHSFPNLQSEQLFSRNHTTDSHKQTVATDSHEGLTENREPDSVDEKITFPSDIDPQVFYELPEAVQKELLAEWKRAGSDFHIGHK

biological target: DNA polymerase iota (Homo sapiens) (UniProt Q9UNA4); assay: qHTS for Inhibitors of Polymerase Iota; conditions: Pol iota fluorescent replication assay, 10 min; series mostly up to 115 µM; activity, negative = inhibition: at the top concentration
Method in brief: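 Fluorescent replication assay read twice, at 0 min and 10 min after adding 50 nM (final) substrate. Enzyme (10 nM) and compounds were first incubated 15 min at room temperature; enzyme-free buffer wells were negative controls.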
Potency is read from the fitted curve at half-maximal effect.

Potency, inconclusive:
COc1cc(C)ccc1OCCSc1nc(-c2cccc(C)c2)nc2cc(=O)[nH]n12 89.1 µM [inhibitor, single point]
O=C(CN1/C(=C(/O)c2ccccc2)C(=O)c2ccccc2S1(=O)=O)c1ccccc1 63.1 µM [inhibitor, partial curve, poor fit]
CCOc1ccc2nc(SCC(=O)c3ccc(O)cc3O)sc2c1 20 µM [inhibitor, full curve, poor fit]
NC(=O)[C@@H]1CCCNc2c(F)cc([N+](=O)[O-])cc2C(=O)N[C@@H](CCC(=O)O)C(=O)N[C@@H](CO)C(=O)N1 11.2 µM [inhibitor, partial curve, poor fit]
O=C(Cc1ccc(S(=O)(=O)N2CCCC2)s1)Nc1nc2c(s1)CCCC2 20 µM [inhibitor, full curve, poor fit]
O=C(O)CCn1cc(/C=C\C(=O)c2ccc(Cl)cc2)c(-c2cccc(Br)c2)n1 56.2 µM [inhibitor, partial curve, poor fit]
Cc1coc2c(O)cc3c(c12)OC1(N2CCCCC2)C(=O)NCCCC31 (configuration not stated) 22.4 µM [inhibitor, full curve, poor fit]
Cc1ccc(/C=N/NC(=O)Cc2ccc(O)cc2)s1 6.31 µM [inhibitor, full curve, poor fit]
O=C1c2ccccc2-c2onc3ccc(NCCCn4ccnc4)c1c23 12.6 µM [inhibitor, partial curve, poor fit]
Cc1ccccc1NS(=O)(=O)c1ccc2[nH]cc(C(=O)NC(C)c3ccccc3)c(=O)c2c1 (configuration not stated) 63.1 µM [inhibitor, partial curve, poor fit]
Cc1ccc(S(=O)(=O)N2CCOC23CCN(S(=O)(=O)c2c(C)cc(C)cc2C)CC3)cc1 89.1 µM [inhibitor, partial curve, poor fit]
CCc1ccccc1NC(=O)CSc1nnc([C@@H](N)Cc2ccccc2)o1 22.4 µM [inhibitor, partial curve, poor fit]
O=C(c1ccc(CNS(=O)(=O)c2cccc(C(F)(F)F)c2)cc1)N1CCOCC1 56.2 µM [inhibitor, partial curve, poor fit]
Cc1cc2c(c(=O)o1)C1(C(=O)N(CC(=O)O)c3ccccc31)C(C#N)=C(N)O2 (configuration not stated) 25.1 µM [inhibitor, partial curve, poor fit]
CCN(CC)c1ccc(Nc2nc(N3CCOCC3)c3ccccc3n2)cc1 11.2 µM [inhibitor, partial curve, poor fit]
COc1ccc(N2CCN(S(=O)(=O)c3ccc(-n4cnnn4)c(C)c3)CC2)cc1 39.8 µM [inhibitor, full curve, poor fit]
O=C(NCC(c1ccco1)N1CCCC1)c1sc2cc(F)ccc2c1Cl (configuration not stated) 44.7 µM [inhibitor, partial curve, poor fit]
CC1=C(c2ccc(F)cc2)S(=O)(=O)NC1=NCc1ccccc1F 89.1 µM [inhibitor, single point]
C/C=C\C(=O)Nc1cccc(C2=NOC3(C2)C[C@@H](C(N)=O)N(C(=O)c2ccccc2)C3)c1 (some centres not stated) 79.4 µM [inhibitor, partial curve]
CNc1ccc(C(=O)c2ccccc2C(=O)O)cc1[N+](=O)[O-] 3.55 µM [inhibitor, full curve, poor fit]
C[C@H]1CN=C(N(C)C)N1CCCC1CCCC1 25.1 µM [inhibitor, partial curve, poor fit]
Cc1cccc(Nc2nn3c(=O)c4ccccc4nc3s2)c1 1.41 µM [inhibitor, full curve, poor fit]
O=C1C(Cc2ccccc2)Nc2ncnc(N3CCOCC3)c2N1Cc1ccc(Br)cc1 (configuration not stated) 11.2 µM [inhibitor, partial curve, poor fit]
COc1cc(OC)cc(C(=O)Nc2sc3c(c2C(N)=O)CCC3)c1 100 µM [inhibitor, partial curve, poor fit]
CCOC(=O)c1sc(NC(=O)CSc2nc3c(cc2C#N)CCCCC3)c(C#N)c1C 25.1 µM [inhibitor, single point]
CN(C)CCCN(C(=O)CCOc1ccccc1)c1nc2c(F)cccc2s1 50.1 µM [inhibitor, partial curve, poor fit]
NNc1nc2c(Cl)cccc2s1 50.1 µM [inhibitor, partial curve, poor fit]
CN(CC(=O)Nc1c(Cl)cccc1Cl)C(=O)Cc1cccs1 44.7 µM [inhibitor, partial curve, poor fit]
O=S(=O)(NCCc1ccncc1)c1ccc(S(=O)(=O)N2CCCCCC2)cc1 79.4 µM [inhibitor, partial curve, poor fit]
COc1ccc(N(C(=O)c2ccccc2F)S(=O)(=O)c2ccc3c(c2)n(C)c(=O)n3C)cc1 89.1 µM [inhibitor, single point]
C#CCOCCOCCOCCNc1nc(N2CCN(C(=O)[C@H](CCCN=C(N)N)n3cc(C(N)[C@@H](C)CC)nn3)CC2)nc(N2CCN(C(=O)[C@H](CCC(=O)O)n3cc([C@@H](N)CC(N)=O)nn3)CC2)n1 (some centres not stated) 1.12 µM [inhibitor, full curve, poor fit]
CCN1C(=O)/C(=C/C=C2/Sc3ccccc3N2CCO)SC1=S 89.1 µM [inhibitor, partial curve, poor fit]
O=C(C=Cc1cccs1)c1cccs1 25.1 µM [inhibitor, partial curve, poor fit]
N#Cc1cc2c([nH]c1=S)CCCC2 126 µM [inhibitor, single point]
[O-][n+]1c2c(c3c4non(O)c4ccc31)CCCC2 50.1 µM [inhibitor, partial curve, poor fit]
Oc1c(Br)cc(Br)cc1/C=N/c1nccs1 12.6 µM [inhibitor, partial curve, poor fit]
CCN(CC)S(=O)(=O)c1nnc(NC(=O)c2ccccc2Cl)s1 89.1 µM [inhibitor, single point]
CCCCn1c(N)c(N(CCOC)C(=O)CN(C)CC(=O)Nc2ccc(Cl)c(Cl)c2)c(=O)[nH]c1=O 100 µM [inhibitor, single point]
CCN(C[C@H]1N[C@@](C)(C(=O)OC)[C@H]2C(=O)N(Cc3ccccc3)C(=O)[C@@H]12)C(=O)c1ccccc1 28.2 µM [inhibitor, single point]
C/C(=N\O)C(C)(C)Nc1ccc(F)cc1 10 µM [inhibitor, partial curve, poor fit]
O=C(NCC(Cl)c1ccc2ccccc2c1)c1c(F)cccc1F (configuration not stated) 70.8 µM [inhibitor, single point]
Cc1cn([C@@H](CCCCN)C(=O)NCCCCCCCCCCC(=O)N2CCNCC2)nn1 22.4 µM [inhibitor, partial curve, poor fit]
Cc1ccc2ncc(C(=O)NCCc3ccc(S(N)(=O)=O)cc3)c(=O)n2c1 89.1 µM [inhibitor, single point]
O=S(=O)(/N=C(\Sc1ccccc1)c1ccccc1)c1ccc(Cl)cc1 7.94 µM [inhibitor, single point]

Fetched by structure from the entries so far (three):
Potency, inconclusive:
O=C(NCC(Cl)c1ccc2ccccc2c1)c1c(F)cccc1F (configuration not stated) 70.8 µM [inhibitor, single point]
O=C(Cc1ccc(S(=O)(=O)N2CCCC2)s1)Nc1nc2c(s1)CCCC2 20 µM [inhibitor, full curve, poor fit]
O=S(=O)(/N=C(\Sc1ccccc1)c1ccccc1)c1ccc(Cl)cc1 7.94 µM [inhibitor, single point]

Following part.

Potency, active:
Oc1c(CN2CCOCC2)ccc(CN2CCOCC2)c1O 10 µM
CCOC(=O)C1=C(C)N=c2s/c(=C/c3ccc(OCC(=O)O)c(OC)c3)c(=O)n2C1c1ccc(Cl)cc1 (configuration not stated) 10 µM
O=C1C=C(O)c2[nH]c(=O)ccc2C1=O 17.8 µM
C=CCOc1c(Cl)cc(CNc2ccc(N(C)C)cc2)cc1OC 8.91 µM

activity, negative = inhibition, inactive:
CC1(C)OB(c2cnc(C#N)nc2)OC1(C)C -21%
Cc1cccc(Nc2cc(C)c3c(O)cccc3n2)c1C -10.8%
COc1ccccc1CCNC(=O)C(=O)NCC(c1cccs1)S(=O)(=O)c1ccc(C)cc1 (configuration not stated) 4.84%
COc1cc2nc(N3CCCN(C)CC3)nc(OC3CCN(C)CC3)c2cc1OC -10.7%
Cc1nc2c(C(=O)NCc3ccc(F)cc3)c[nH]n2c(=O)c1Cl -22.9% [at 58.9 µM]
COC(=O)CC1Oc2ccc(F)cc2-n2cc(-c3ccc(Cl)cc3)nc21 (configuration not stated) 7.62%
CC(=O)N1CCOc2cc(S(=O)(=O)NCc3ccc(C)cc3)c(C)cc21 11.7%
Cc1ccc(NS(=O)(=O)c2c(C)[nH]c(C)c2C(=O)N2CCCCC2)cc1Cl 10.6%
Cc1cccc(C(=O)OCC(=O)c2ccc(CC(=O)N3CCOCC3)s2)c1C -95.7%
CCOC(=O)CSc1nc2sc3c(c2c(=O)n1Cc1ccccc1)CCC(C(C)(C)C)C3 (configuration not stated) 10.5%
COc1ccc(-n2c(C)c(C(C)=O)c3cc(O)ccc32)cc1 -11.4%
Cc1ccccc1NC(=O)c1c(C)oc2ccc(O)c(CN3CCCC3)c12 15.9%
Cc1ccc(N(C)C(=O)Cn2cnc3onc(-c4ccc(F)cc4)c3c2=O)cc1C 5.24%
CCOc1ccc(NC(=O)CSc2nc3c(c(=O)[nH]2)CCCC3)cc1 23.5%

For convenience, some entries already given:
activity, negative = inhibition, inactive:
COC(=O)CC1Oc2ccc(F)cc2-n2cc(-c3ccc(Cl)cc3)nc21 (configuration not stated) 7.62%
CC(=O)N1CCOc2cc(S(=O)(=O)NCc3ccc(C)cc3)c(C)cc21 11.7%
